Assays:
C. elegans = test: PhDY-Chol uptake and storage in live C. elegans by SRS imaging; assay type: in vivo; conditions: fed 500 μM, 3 days
CHO cells = test: SRS imaging of probe incorporation and storage in live cells; assay type: cell-based, Chinese hamster; conditions: 50 μM, 16 h
M12 cells = test: SRS/TPEF imaging of probe in NP-C disease cell model; assay type: cell-based, Chinese hamster; conditions: M12 cells (NPC1 deleted), filipin / LysoTracker staining

With `C[C@H](CCC#CC#Cc1ccccc1)[C@H]1CC[C@H]2[C@@H]3CC=C4C[C@@H](O)CC[C@]4(C)[C@H]3CC[C@]12C` [PhDY-Chol, phenyl-diyne cholesterol] the “storage site in worms” value (C. elegans; N2 wildtype) was “stored in the intestinal cells”, the “storage compartment in intestinal cells” value (C. elegans; hjIs9 worms with GFP targeted to LROs) was “stored in the LROs” and the “uptake in ChUP-1 deleted worms” value (C. elegans; mutant C. elegans with ChUP-1 deletion) was “did not observe PhDY-Chol inside this strain”. The intracellular localization (CHO cells; live CHO cells) was “colocalized with LDs”, the “incorporation into the plasma membrane” value (CHO cells; trypsinized live CHO cells, on-resonance SRS image) was “detected in the on-resonance image” and the “intracellular localization in NP-C model cells” value (M12 cells) was “located in lysosomes”. The “intracellular localization in NP-C model cells” value (M12 cells; listed as PhDY-CHOL) was “found inside lysosomes”.

Source: US11390644B2, “Raman tag” (Purdue Research Foundation, priority 2014, dated 2022)
